Paper PMC10066190
Results are given in words; binding and its absence hold for the method and conditions named. Binding seen in cells or lysates may run through a third protein. Some binding calls cover weakened binding; strength is not graded here. Sequences can lack the tags named with a protein.

Amino acid sequences for entries named in this document (tags omitted).
UniProt Q12888: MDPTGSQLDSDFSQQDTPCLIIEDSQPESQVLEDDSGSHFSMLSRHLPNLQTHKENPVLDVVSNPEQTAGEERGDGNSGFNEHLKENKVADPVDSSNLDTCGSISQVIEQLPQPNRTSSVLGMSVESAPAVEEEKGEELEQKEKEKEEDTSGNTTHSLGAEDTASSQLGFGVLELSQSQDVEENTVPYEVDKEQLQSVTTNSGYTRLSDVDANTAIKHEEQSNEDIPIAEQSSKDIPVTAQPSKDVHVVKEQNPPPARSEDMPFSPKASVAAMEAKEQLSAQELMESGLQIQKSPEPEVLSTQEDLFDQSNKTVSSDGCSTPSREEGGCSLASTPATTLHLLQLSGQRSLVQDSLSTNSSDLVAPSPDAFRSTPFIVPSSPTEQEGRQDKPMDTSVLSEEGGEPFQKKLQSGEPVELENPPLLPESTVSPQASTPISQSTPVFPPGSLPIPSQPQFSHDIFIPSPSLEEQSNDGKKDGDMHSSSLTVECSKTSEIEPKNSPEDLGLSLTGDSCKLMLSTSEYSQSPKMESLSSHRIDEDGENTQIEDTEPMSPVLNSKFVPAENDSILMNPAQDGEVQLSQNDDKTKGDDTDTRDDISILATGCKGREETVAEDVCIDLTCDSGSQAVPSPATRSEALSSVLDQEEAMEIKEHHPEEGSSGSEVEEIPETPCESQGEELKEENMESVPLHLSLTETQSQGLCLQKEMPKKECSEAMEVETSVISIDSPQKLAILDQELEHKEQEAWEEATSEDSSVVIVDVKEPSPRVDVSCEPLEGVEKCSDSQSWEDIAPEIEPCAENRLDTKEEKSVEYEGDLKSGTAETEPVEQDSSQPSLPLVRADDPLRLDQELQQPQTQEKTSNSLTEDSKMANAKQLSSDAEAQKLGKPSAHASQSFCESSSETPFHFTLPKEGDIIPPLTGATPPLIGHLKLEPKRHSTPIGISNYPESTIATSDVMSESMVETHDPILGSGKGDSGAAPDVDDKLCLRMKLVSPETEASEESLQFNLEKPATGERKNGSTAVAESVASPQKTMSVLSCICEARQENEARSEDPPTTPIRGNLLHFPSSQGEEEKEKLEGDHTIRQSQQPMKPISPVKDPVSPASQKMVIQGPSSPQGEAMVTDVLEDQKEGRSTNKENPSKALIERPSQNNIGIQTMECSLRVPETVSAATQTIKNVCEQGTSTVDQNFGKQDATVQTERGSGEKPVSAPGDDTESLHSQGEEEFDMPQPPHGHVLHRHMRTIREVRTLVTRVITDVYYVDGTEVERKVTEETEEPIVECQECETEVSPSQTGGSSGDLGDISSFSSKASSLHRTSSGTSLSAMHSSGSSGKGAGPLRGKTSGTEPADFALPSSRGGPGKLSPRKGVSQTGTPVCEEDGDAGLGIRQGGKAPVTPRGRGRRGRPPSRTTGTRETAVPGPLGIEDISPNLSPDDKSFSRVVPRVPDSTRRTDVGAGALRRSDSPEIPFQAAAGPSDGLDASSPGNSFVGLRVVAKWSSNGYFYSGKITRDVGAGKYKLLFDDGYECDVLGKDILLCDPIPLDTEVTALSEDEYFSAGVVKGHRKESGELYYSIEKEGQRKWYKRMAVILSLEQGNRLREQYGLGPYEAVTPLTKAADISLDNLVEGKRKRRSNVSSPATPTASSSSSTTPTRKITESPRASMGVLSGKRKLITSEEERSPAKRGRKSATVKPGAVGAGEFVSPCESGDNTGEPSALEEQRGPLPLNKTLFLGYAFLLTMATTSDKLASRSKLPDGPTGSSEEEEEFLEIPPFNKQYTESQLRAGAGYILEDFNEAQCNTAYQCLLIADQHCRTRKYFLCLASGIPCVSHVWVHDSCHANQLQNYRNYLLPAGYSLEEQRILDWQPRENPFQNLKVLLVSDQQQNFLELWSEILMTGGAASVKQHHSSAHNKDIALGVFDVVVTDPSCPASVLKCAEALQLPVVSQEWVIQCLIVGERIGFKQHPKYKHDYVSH

Target: 53BP1 in 293T cells (co-IP with ectopic TRABID) (UniProt Q12888)
Test: co-IP; 293T cells transfected with the indicated plasmids (Fig. 2a with or without IR for 1 h); lysis in IP buffer (50 mM Tris-HCl pH 7.4, 150 mM NaCl, 1% Triton X-100, 1% sodium deoxycholate); primary antibody and protein A/G agarose overnight at 4 °C; western blot

B1: TRABID OTU domain (residues 340 to 708), Myc-tagged truncated mutant (domain or fragment, UniProt Q9UGI0 340-708)
chain: AKCIPAMVCPELTEQIRREIAASLHQRKGDFACYFLTDLVTFTLPADIEDLPPTVQEKLFDEVLDRDVQKELEEESPIINWSLELATRLDSRLYALWNRTAGDCLLDSVLQATWGIYDKDSVLRKALHDSLHDCSHWFYTRWKDWESWYSQSFGLHFSLREEQWQEDWAFILSLASQPGASLEQTHIFVLAHILRRPIIVYGVKYYKSFRGETLGYTRFQGVYLPLLWEQSFCWKSPIALGYTRGHFSALVAMENDGYGNRGAGANLNTDDDVTITFLPLVDSERKLLHVHFLSAQELGNEEQQEKLLREWLDCCVTEGGVLVAMQKSSRRRNHPLVTQMVEKWLDRYRQIRPCTSLSDGEEDEDDEDE
- binding: binds
